Data set [1] concerns T1, NbGlk1(83-243) (Nicotiana benthamiana).
T1 sequence (looked up, limits assumed): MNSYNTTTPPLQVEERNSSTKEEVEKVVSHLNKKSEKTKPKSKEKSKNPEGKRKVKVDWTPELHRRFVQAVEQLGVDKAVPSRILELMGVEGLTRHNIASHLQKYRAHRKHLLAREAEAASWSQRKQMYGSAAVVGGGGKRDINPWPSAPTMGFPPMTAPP
Description: fluorescence anisotropy. The conditions noted are these: Fluorescence anisotropy: 20 mM Tris-HCl pH 7.4, 140 mM NaCl, 1 mM DTT, 10 nM labelled DNA, temperature not stated. PBM conditions as in cited protocols., recombinant protein, protein details: His6 (pET14b), letters put together from the description.

For data set [2], the system named is T2, NbGlk1(83-402) (Nicotiana benthamiana).
T2 sequence (looked up, limits assumed): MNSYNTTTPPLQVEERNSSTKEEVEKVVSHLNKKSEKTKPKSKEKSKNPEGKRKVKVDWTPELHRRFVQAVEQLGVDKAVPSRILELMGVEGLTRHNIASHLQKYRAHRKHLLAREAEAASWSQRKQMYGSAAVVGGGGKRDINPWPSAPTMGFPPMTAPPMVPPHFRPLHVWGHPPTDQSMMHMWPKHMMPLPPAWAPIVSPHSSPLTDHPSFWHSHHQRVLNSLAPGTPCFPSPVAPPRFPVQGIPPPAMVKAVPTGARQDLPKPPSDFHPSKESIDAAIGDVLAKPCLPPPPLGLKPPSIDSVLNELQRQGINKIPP
Description: fluorescence anisotropy. The settings on record: Fluorescence anisotropy: 20 mM Tris-HCl pH 7.4, 140 mM NaCl, 1 mM DTT, 10 nM labelled DNA, temperature not stated. PBM conditions as in cited protocols., recombinant protein, protein details: His6 (pET14b), letters put together from the description.

Data set [3] concerns T3, NbGlk1(1-243) (Nicotiana benthamiana).
T3 sequence (looked up, limits assumed): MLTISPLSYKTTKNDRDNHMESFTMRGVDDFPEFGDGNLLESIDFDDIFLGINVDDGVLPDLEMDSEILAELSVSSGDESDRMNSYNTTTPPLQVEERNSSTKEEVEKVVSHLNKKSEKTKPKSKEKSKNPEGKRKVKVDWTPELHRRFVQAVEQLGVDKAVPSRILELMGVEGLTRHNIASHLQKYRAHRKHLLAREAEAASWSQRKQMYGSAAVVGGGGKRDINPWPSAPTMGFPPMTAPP
Description: FP. The conditions noted are these: Fluorescence anisotropy: 20 mM Tris-HCl pH 7.4, 140 mM NaCl, 1 mM DTT, 10 nM labelled DNA; temperature not stated. PBM conditions as in cited protocols.; recombinant protein; protein details: His6 (pET14b); label: 6-carboxyfluorescein end label on FA-5; letters put together from the description.

Data set [4] has the same test system. Nature of the data set: fluorescence anisotropy. The settings on record: Fluorescence anisotropy: 20 mM Tris-HCl pH 7.4, 140 mM NaCl, 1 mM DTT, 10 nM labelled DNA, temperature not stated. PBM conditions as in cited protocols., recombinant protein, protein details: His6 (pET14b), label: 6-carboxyfluorescein end label on FA-5, letters put together from the description.

The mark [5] stands for this setting: with His6-Rx1(1-144), label: 6-carboxyfluorescein end label on FA-1.
Setting [6] is: with His6-Rx1(1-489), label: 6-carboxyfluorescein end label on FA-1.
Setting [7] is: with His6-Rx1(1-144), label: 6-carboxyfluorescein end label on FA-3.
[8] abbreviates: with His6-Rx1(1-489), label: 6-carboxyfluorescein end label on FA-3.
Setting [9] is: with His6-Rx1(1-144), label: 6-carboxyfluorescein end label on FA-5.
Where [10] appears, read: with His6-Rx1(1-489), label: 6-carboxyfluorescein end label on FA-5.

For part of these data: Weaker means in comparison with the reference protein, sequence or condition of that experiment. Protein sequences can lack the tags named with them. For part of these data: Construct, isoform or probe ends are uncertain for at least one entry.

Consider “CACTGTGACACACTGTGACACACTGTGACACACTGTGACACACTGTGACC (double strand) [No site (FA-1/FA-2)]”, for which the Kd in data set [1] (setting [5]) stood at 850 nM; in data set [1] (setting [6]), 1340 nM; in data set [2] (with GST-Rx1(1-144), label: 6-carboxyfluorescein end label on FA-1) it was 1990 nM; in data set [2] (setting [5]), 400 nM; in data set [2] (setting [6]), 420 nM.

On to “CAGATTTCCACAGATTTCCACAGATTTCCACAGATTTCCACAGATTTCCC (double strand) [AGATTT (concatenated AGATTTCC; FA-3/FA-4)]”, for which the Kd in data set [1] (setting [7]) worked out at 760 nM; in data set [1] (setting [8]), 650 nM; in data set [2] (with GST-Rx1(1-144), label: 6-carboxyfluorescein end label on FA-3) it was 730 nM; in data set [2] (setting [7]) it was 460 nM; in data set [2] (setting [8]), 340 nM.

“CGGATATCCACGGATATCCACGGATATCCACGGATATCCACGGATATCCC (double strand) [GATATC (concatenated GGATATCC; FA-5/FA-6)]”: the binding result in data set [3], in data set [4] (with His6-Rx1(1-144)) and in data set [4] (with His6-Rx1(1-489)) was “binds more weakly” in each case. The Kd in data set [1] (setting [9]) came to 400 nM; in data set [1] (setting [10]) it was 500 nM; in data set [2] (with GST-Rx1(1-144), label: 6-carboxyfluorescein end label on FA-5), 340 nM; in data set [2] (setting [9]), 300 nM; in data set [2] (setting [10]), 190 nM.
